Values from PubChem BioAssay AID1259424 (University of Nebraska Medical Center, 2018).

Screen: 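Rank knockdowns across the genome by resemblance to the KSR1 depletion profile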 (primary screen)
Cells: human HCT116 colon cancer cells
Reagents: siRNA pool against human genes, 50 nM
Measured: 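Six signature mRNAs by branched-DNA multiplex assay, scaled to two housekeeping genes and non-targeting median, log2; matched to mean KSR1 knockdown profile by Pearson correlation and euclidean distance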
Scale: mean correlation with KSR1 profile: higher = expression change more like KSR1 knockdown; mean distance from KSR1 profile: higher = expression change less like KSR1 knockdown
This is an unselected part of about 14,000 reagents tested. 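Higher correlation or smaller distance means closer resemblance to KSR1 loss; control wells, including KSR1 knockdowns, recur on many plates.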 Further read-outs or replicates are left out here. The record does not give: the time to read-out.

Silencing of RPF1 (GeneID 80135) came out at: mean correlation with KSR1 profile 0.0733; mean distance from KSR1 profile 2.06.
Against BLNK (GeneID 29760) the deposit lists mean correlation with KSR1 profile 0.497; mean distance from KSR1 profile 3.08.
After knock-down of HTN3 (GeneID 3347), the screen gave mean correlation with KSR1 profile -0.397; mean distance from KSR1 profile 2.01.
Against FKBP3 (GeneID 2287), the entry reads mean correlation with KSR1 profile -0.658; mean distance from KSR1 profile 2.01.
Against CCND1 (GeneID 595) the deposit lists mean correlation with KSR1 profile -0.366; mean distance from KSR1 profile 3.36.
Silencing of TPSB2 (GeneID 64499) resulted in: mean correlation with KSR1 profile 0.107; mean distance from KSR1 profile 1.16.
Depletion of SLC39A2 (GeneID 29986) gave: mean correlation with KSR1 profile -0.207; mean distance from KSR1 profile 2.05.

Copied from the list.
HTN3 (GeneID 3347), mean distance from KSR1 profile: 2.01
CCND1 (GeneID 595), mean correlation with KSR1 profile: -0.366
Entry of BLNK (GeneID 29760) under “mean distance from KSR1 profile”: 3.08

More results follow.
For PGS1 (GeneID 9489), the entry reads mean correlation with KSR1 profile -0.225; mean distance from KSR1 profile 2.18.
After knock-down of ATG12 (GeneID 9140), the record shows mean correlation with KSR1 profile 0.915; mean distance from KSR1 profile 0.371.
After knock-down of TNNI1 (GeneID 7135), the record shows mean correlation with KSR1 profile 0.605; mean distance from KSR1 profile 1.51.
Knock-down of DTNBP1 (GeneID 84062) resulted in: mean correlation with KSR1 profile -0.543; mean distance from KSR1 profile 2.16.
Depletion of TOGARAM1 (GeneID 23116) came out at: mean correlation with KSR1 profile -0.0565; mean distance from KSR1 profile 2.49.
CSMD1 (GeneID 64478) showed mean correlation with KSR1 profile -0.401; mean distance from KSR1 profile 2.18.
REPS1 (GeneID 85021) scored mean correlation with KSR1 profile 0.292; mean distance from KSR1 profile 1.45.
After knock-down of RNASE6 (GeneID 6039), the record shows mean correlation with KSR1 profile -0.339; mean distance from KSR1 profile 1.39.
With knock-down of USP48 (GeneID 84196) the results were mean correlation with KSR1 profile 0.736; mean distance from KSR1 profile 1.17.
After knock-down of PDGFB (GeneID 5155) the results were mean correlation with KSR1 profile -0.592; mean distance from KSR1 profile 1.76.
With knock-down of OSGIN2 (GeneID 734), the record shows mean correlation with KSR1 profile -0.08; mean distance from KSR1 profile 1.92.
Depletion of KCNQ3 (GeneID 3786) gave: mean correlation with KSR1 profile -0.151; mean distance from KSR1 profile 2.25.
